Reference: article PMC4619771
No constants are given. Whether binding was seen depends on the method and setting. Binding seen in cells or lysates may run through a third protein.

Target: RNA DEAD box helicase p68, P17844
Experiment: co-IP; in vitro; in vitro translated CTCF and p68 with antisense or sense SRA RNA; IP with p68 antibody or CTCF antibody, western blot
Settings: remark: other sources report otherwise

B1: CTCF, P49711 1-727 (protein)
chain: MEGDAVEAIVEESETFIKGKERKTYQRRREGGQEEDACHLPQNQTDGGEVVQDVNSSVQMVMMEQLDPTLLQMKTEVMEGTVAPEAEAAVDDTQIITLQVVNMEEQPINIGELQLVQVPVPVTVPVATTSVEELQGAYENEVSKEGLAESEPMICHTLPLPEGFQVVKVGANGEVETLEQGELPPQEDPSWQKDPDYQPPAKKTKKTKKSKLRYTEEGKDVDVSVYDFEEEQQEGLLSEVNAEKVVGNMKPPKPTKIKKKGVKKTFQCELCSYTCPRRSNLDRHMKSHTDERPHKCHLCGRAFRTVTLLRNHLNTHTGTRPHKCPDCDMAFVTSGELVRHRRYKHTHEKPFKCSMCDYASVEVSKLKRHIRSHTGERPFQCSLCSYASRDTYKLKRHMRTHSGEKPYECYICHARFTQSGTMKMHILQKHTENVAKFHCPHCDTVIARKSDLGVHLRKQHSYIEQGKKCRYCDAVFHERYALIQHQKSHKNEKRFKCDQCDYACRQERHMIMHKRTHTGEKPYACSHCDKTFRQKQLLDMHFKRYHDPNFVPAAFVCSKCGKTFTRRNTMARHADNCAGPDGVEGENGGETKKSKRGRKRKMRSKKEDSSDSENAEPDLDDNEDEEEPAVEIEPEPEPQPVTPAPPPAKKRRGRPPGRTNQPKQNQPTAIIQVEDQNTGAIENIIVEVKKEPDAEPAEGEEEEAQPAATDAPNGDLTPEMILSMMDR
Question: B1 was tested. Which binding did it give?
Answer: Its binding is “no binding”.
